Measurements: ChEMBL document CHEMBL1687827, “Profiling the Aspergillus fumigatus proteome in response to caspofungin” (2011)
The source gives many values for each of these; only a part stands here.

How the values were obtained:
Assay type in all cases: functional
Aspergillus fumigatus [1] = assay: Induction of change in ribosomal protein L35, putative protein level in iTRAQ114 labelled cell wall fraction of drug-susceptible Aspergillus fumigatus KU80 delta-akuB at 0.12 ug/ml after 24 hrs in YPD medium by MS (MS/MS) analysis relative to control
Aspergillus fumigatus [2] = assay: Induction of change in citrate synthase Cit1, putative protein level in iTRAQ-116 labelled secreted fraction of drug-resistant Aspergillus fumigatus EMFR-S678P at 0.12 ug/ml after 48 hrs in YPD medium by MS (MS/MS) analysis relative to control
Aspergillus fumigatus [3] = assay: Induction of change in ribosomal protein S8 gene expression in drug-susceptible Aspergillus fumigatus KU80 delta-akuB at 0.12 ug/ml after 24 hrs in YPD medium by microarray analysis relative to control
Aspergillus fumigatus [4] = assay: Induction of change in ribosomal protein L26 protein level in iTRAQ114 labelled secreted fraction of drug-susceptible Aspergillus fumigatus KU80 delta-akuB at 0.12 ug/ml after 24 hrs in YPD medium by MS (MS/MS) analysis relative to control
Aspergillus fumigatus [5] = assay: Induction of change in Mitochondrial hypoxia-responsive domain protein level in iTRAQ-116 labelled cell wall fraction of drug-susceptible Aspergillus fumigatus KU80 delta-akuB at 0.12 ug/ml after 24 hrs in YPD medium by MS (MS/MS) analysis relative to control
Aspergillus fumigatus [6] = assay: Induction of change in hypothetical gene locus AFUA_6G02310 expression in drug-susceptible Aspergillus fumigatus KU80 delta-akuB at 0.12 ug/ml after 48 hrs in YPD medium by microarray analysis relative to control
Aspergillus fumigatus [7] = assay: Induction of change in ubiquinol-cytochrome C reductase complex core protein 2, putative protein level in iTRAQ-118 labelled cell wall fraction of drug-resistant Aspergillus fumigatus EMFR-S678P at 0.12 ug/ml after 24 hrs in YPD medium by MS (MS/MS) analysis relative to control
Aspergillus fumigatus [8] = assay: Induction of change in C2H2 transcription factor (Seb1), putative, putative gene expression in drug-susceptible Aspergillus fumigatus KU80 delta-akuB at 0.12 ug/ml after 48 hrs in YPD medium by microarray analysis relative to control
Aspergillus fumigatus [9] = assay: Induction of change in eukaryotic translation initiation factor subunit eIF-4F, putative protein level in iTRAQ-116 labelled secreted fraction of drug-resistant Aspergillus fumigatus EMFR-S678P at 0.12 ug/ml after 48 hrs in YPD medium by MS (MS/MS) analysis relative to control
Aspergillus fumigatus [10] = assay: Induction of change in extracellular serine-rich protein, putative protein level in iTRAQ-118 labelled cell wall fraction of drug-susceptible Aspergillus fumigatus KU80 delta-akuB at 0.12 ug/ml after 24 hrs in YPD medium by MS (MS/MS) analysis relative to control
Aspergillus fumigatus [11] = assay: Induction of change in heat shock protein Hsp98/Hsp104/ClpA, putative protein level in iTRAQ121 labelled cell wall fraction of drug-susceptible Aspergillus fumigatus KU80 delta-akuB at 0.12 ug/ml after 48 hrs in YPD medium by MS (MS/MS) analysis relative to control
Aspergillus fumigatus [12] = assay: Induction of change in major allergen and cytotoxin AspF1 protein level in iTRAQ-116 labelled secreted fraction of drug-resistant Aspergillus fumigatus EMFR-S678P at 0.12 ug/ml after 48 hrs in YPD medium by MS (MS/MS) analysis relative to control
Aspergillus fumigatus [13] = assay: Induction of change in Iron-sulfur cluster assembly accessory protein subfamily, putative gene expression in drug-susceptible Aspergillus fumigatus KU80 delta-akuB at 0.12 ug/ml after 24 hrs in YPD medium by microarray analysis relative to control
Aspergillus fumigatus [14] = assay: Induction of change in mitochondrial hypoxia responsive domain protein level in iTRAQ-116 labelled secreted fraction of drug-resistant Aspergillus fumigatus EMFR-S678P at 0.12 ug/ml after 48 hrs in YPD medium by MS (MS/MS) analysis relative to control
Aspergillus fumigatus [15] = assay: Induction of change in 1,3-beta-glucanosyltransferase Gel1 protein level in iTRAQ-116 labelled secreted fraction of drug-susceptible Aspergillus fumigatus KU80 delta-akuB at 0.12 ug/ml after 48 hrs in YPD medium by MS (MS/MS) analysis relative to control
Aspergillus fumigatus [16] = assay: Induction of change in tripeptidyl-peptidase (TppA), putative protein level in iTRAQ-116 labelled secreted fraction of drug-resistant Aspergillus fumigatus EMFR-S678P at 0.12 ug/ml after 48 hrs in YPD medium by MS (MS/MS) analysis relative to control
Aspergillus fumigatus [17] = assay: Induction of change in cytochrome c protein level in iTRAQ-118 labelled cell wall fraction of drug-resistant Aspergillus fumigatus EMFR-S678P at 0.12 ug/ml after 24 hrs in YPD medium by MS (MS/MS) analysis relative to control
Aspergillus fumigatus [18] = assay: Induction of change in 60S ribosomal protein P0 protein level in iTRAQ114 labelled cell wall fraction of drug-resistant Aspergillus fumigatus EMFR-S678P at 0.12 ug/ml after 24 hrs in YPD medium by MS (MS/MS) analysis relative to control
Aspergillus fumigatus [19] = assay: Induction of change in choline oxidase (CodA), putative protein level in iTRAQ-116 labelled secreted fraction of drug-resistant Aspergillus fumigatus EMFR-S678P at 0.12 ug/ml after 48 hrs in YPD medium by MS (MS/MS) analysis relative to control
Aspergillus fumigatus [20] = assay: Induction of change in 60S ribosomal protein L44 protein level in iTRAQ114 labelled cell wall fraction of drug-resistant Aspergillus fumigatus EMFR-S678P at 0.12 ug/ml after 24 hrs in YPD medium by MS (MS/MS) analysis relative to control
Aspergillus fumigatus [21] = assay: Induction of change in 14-alpha sterol demethylase Cyp51A protein level in iTRAQ121 labelled cell wall fraction of drug-susceptible Aspergillus fumigatus KU80 delta-akuB at 0.12 ug/ml after 48 hrs in YPD medium by MS (MS/MS) analysis relative to control
Aspergillus fumigatus [22] = assay: Induction of change in Translation elongation factor eEF-3, putative protein level in iTRAQ-116 labelled cell wall fraction of drug-resistant Aspergillus fumigatus EMFR-S678P at 0.12 ug/ml after 48 hrs in YPD medium by MS (MS/MS) analysis relative to control
Aspergillus fumigatus [23] = assay: Induction of change in Eukaryotic translation initiation factor eIF-5A protein level in iTRAQ-118 labelled cell wall fraction of drug-resistant Aspergillus fumigatus EMFR-S678P at 0.12 ug/ml after 24 hrs in YPD medium by MS (MS/MS) analysis relative to control
Aspergillus fumigatus [24] = assay: Induction of change in Ribosomal protein S28e gene expression in drug-susceptible Aspergillus fumigatus KU80 delta-akuB at 0.12 ug/ml after 24 hrs in YPD medium by microarray analysis relative to control
Aspergillus fumigatus [25] = assay: Induction of change in cell wall glucanase, putative protein level in iTRAQ-116 labelled cell wall fraction of drug-susceptible Aspergillus fumigatus KU80 delta-akuB at 0.12 ug/ml after 48 hrs in YPD medium by MS (MS/MS) analysis relative to control

Compound: CC[C@H](C)C[C@H](C)CCCCCCCCC(=O)N[C@H]1C[C@@H](O)[C@@H](NCCN)NC(=O)[C@@H]2[C@@H](O)CCN2C(=O)[C@H]([C@H](O)CCN)NC(=O)[C@H]([C@H](O)[C@@H](O)c2ccc(O)cc2)NC(=O)[C@@H]2C[C@@H](O)CN2C(=O)[C@H]([C@@H](C)O)NC1=O [CASPOFUNGIN]
- fold change (FC) (Aspergillus fumigatus [1]): 1.7
- fold change (FC) (Aspergillus fumigatus [2]): -1.32
- fold change (FC) (Aspergillus fumigatus [3]): 4.9
- fold change (FC) (Aspergillus fumigatus [4]): 1.2
- fold change (FC) (Aspergillus fumigatus [5]): -16
- fold change (FC) (Aspergillus fumigatus [6]): 4
- fold change (FC) (Aspergillus fumigatus [7]): -1.15
- fold change (FC) (Aspergillus fumigatus [8]): -2.7
- fold change (FC) (Aspergillus fumigatus [9]): -1.15
- fold change (FC) (Aspergillus fumigatus [10]): 2.1
- fold change (FC) (Aspergillus fumigatus [11]): -2.6
- fold change (FC) (Aspergillus fumigatus [12]): -1.15
- fold change (FC) (Aspergillus fumigatus [13]): 4.2
- fold change (FC) (Aspergillus fumigatus [14]): -1.07
- fold change (FC) (Aspergillus fumigatus [15]): 2.8
- fold change (FC) (Aspergillus fumigatus [16]): 1.15
- fold change (FC) (Aspergillus fumigatus [17]): 1.07
- fold change (FC) (Aspergillus fumigatus [18]): -1.23
- fold change (FC) (Aspergillus fumigatus [19]): 1.23
- fold change (FC) (Aspergillus fumigatus [20]): 1.41
- fold change (FC) (Aspergillus fumigatus [21]): -2.1
- fold change (FC) (Aspergillus fumigatus [22]): 1.07
- fold change (FC) (Aspergillus fumigatus [23]): -1.32
- fold change (FC) (Aspergillus fumigatus [24]): 3.5
- fold change (FC) (Aspergillus fumigatus [25]): -1.3
